Laboratory results taken from paper PMC9083542, “Small Molecule Inhibitor Targeting CDT1/Geminin Protein Complex Promotes DNA Damage and Cell Death in Cancer Cells” (Frontiers in Pharmacology, 2022).
Changes are numbered by the printed parent chain. These are yes or no findings as the source states them, for the method shown. Some results given as binding are weak or reduced against the parent protein; the word gives no strength. Where a sequence is shown, tags or fusion partners need not be part of it.

How the values were obtained:
[1] = target: T1, His-tagged human CDT1^158-396 Y170A (miniCDT1Y170A) (human) (UniProt Q9H211); experiment: co-expression and co-purification (IMAC, SEC); His-tagged miniCDT1 mutants co-expressed with ΔDBGeminin in E. coli Rosetta 2 (DE3); Ni-NTA column, then Superdex 200; 25 mM Tris-HCl pH 7.5, 200 mM NaCl
T1 sequence: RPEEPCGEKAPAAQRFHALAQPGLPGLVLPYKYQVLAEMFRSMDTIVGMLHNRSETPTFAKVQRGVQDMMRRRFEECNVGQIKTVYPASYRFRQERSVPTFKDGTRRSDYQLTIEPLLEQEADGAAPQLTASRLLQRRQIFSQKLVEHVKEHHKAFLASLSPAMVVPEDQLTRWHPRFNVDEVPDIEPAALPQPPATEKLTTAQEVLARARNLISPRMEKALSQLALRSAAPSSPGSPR

[2] = target: T2, His-tagged human CDT1^158-396 F173A (miniCDT1F173A) (human) (UniProt Q9H211); experiment: as above
T2 sequence: T1 sequence with A13Y, F16A

[3] = target: T3, His-tagged human CDT1^158-396 L176A (miniCDT1L176A) (human) (UniProt Q9H211); experiment: as above
T3 sequence: T1 sequence with A13Y, L19A

[4] = target: T4, His-tagged human CDT1^158-396 (miniCDT1), wild type (human) (UniProt Q9H211); experiment: AlphaScreen or HTRF; dose response of compound AF615 (serial dilution from 200 μM) on the Flag-ΔDBGeminin/His6-miniCDT1 wild type complex; nickel-chelated Acceptor beads and a-Flag Donor beads; both purified
T4 sequence: T1 sequence with A13Y

[5] = target: T1, His-tagged human CDT1^158-396 Y170A (miniCDT1Y170A) (human); experiment: AlphaScreen or HTRF; competition: Flag-ΔDBGeminin/His6-miniCDT1 mutant complex at 50 nM, streptavidin Donor beads with biotinylated anti-Flag antibody, nickel-chelate Acceptor beads; increasing untagged ΔDBGeminin; 25 mM Hepes pH 7.4, 100 mM NaCl, 0.1% BSA; 1.5 h at RT; both purified
[6] = target: T2, His-tagged human CDT1^158-396 F173A (miniCDT1F173A) (human); experiment: as above
[7] = target: T3, His-tagged human CDT1^158-396 L176A (miniCDT1L176A) (human); experiment: as above

Measured: binding

B1: Flag-tagged Geminin^28-209 (ΔDBGeminin) (domain or fragment, human, UniProt O75496 28-209, looked up)
chain: MIQPSASGSLVGRENELSAGLSKRKHRNDHLTSTTSSPGVIVPESSENKNLGGVTQESFDLMIKENPSSQYWKEVAEKRRKALYEALKENEKLHKEIEQKDNEIARLKKENKELAEVAEHVQYMAELIERLNGEPLDNFESLDNQEFDSEEETVEDSLVEDSEIGTCAEGTVSSSTDAKPCI
notes: Geminin, human, residues 28-209 (lacks the N-terminal stretch with the destruction box), cloned into pET22b; also called Flag-tagged ΔDBGeminin; source: E. coli Rosetta 2 (DE3), co-expressed with miniCDT1 variants, co-purified (Ni-NTA IMAC, SEC)
binds: all assays above
